Data taken from article doi:10.1101/2024.11.01.621267.
These are yes or no findings as the source states them, for the method shown. Binding seen in cells or lysates may run through a third protein. A result given as binding can be weak or reduced; the word gives no strength.

Protein sequences, listed by entry. Tags and fused reporters are not part of them.
UniProt P11940: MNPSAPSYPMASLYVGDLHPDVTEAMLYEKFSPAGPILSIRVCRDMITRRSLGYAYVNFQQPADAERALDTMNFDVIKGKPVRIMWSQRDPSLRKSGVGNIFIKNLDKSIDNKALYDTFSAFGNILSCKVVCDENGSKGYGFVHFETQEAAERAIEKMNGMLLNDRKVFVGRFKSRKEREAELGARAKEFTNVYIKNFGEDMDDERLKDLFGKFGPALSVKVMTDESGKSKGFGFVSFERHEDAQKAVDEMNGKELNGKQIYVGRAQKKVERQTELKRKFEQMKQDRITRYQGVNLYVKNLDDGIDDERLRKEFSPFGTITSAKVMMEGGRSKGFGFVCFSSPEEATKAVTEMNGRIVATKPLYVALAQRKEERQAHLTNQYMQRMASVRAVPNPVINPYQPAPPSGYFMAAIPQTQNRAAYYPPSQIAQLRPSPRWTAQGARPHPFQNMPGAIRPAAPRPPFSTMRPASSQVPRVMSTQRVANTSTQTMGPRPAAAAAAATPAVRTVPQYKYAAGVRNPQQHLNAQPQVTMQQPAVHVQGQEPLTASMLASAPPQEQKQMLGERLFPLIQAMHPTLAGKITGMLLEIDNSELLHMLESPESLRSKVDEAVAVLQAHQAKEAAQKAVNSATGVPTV

What was measured:
FLAG-LARP4-ΔPAM2 (human) = FLAG-LARP4-ΔPAM2 (human) (UniProt Q71RC2); experiment: co-IP; anti-FLAG M2 magnetic beads, extract of HEK293 cells transfected with FLAG-tagged constructs; 4°C 2 hours; 50 mM Tris, 75 mM NaCl, 0.05% NP-40; blot with anti-RACK1 or anti-PABP1
[1] = biological target: FLAG-LARP4-L22A/W22A (human) (UniProt Q71RC2); experiment: as above

binding (FLAG-LARP4-ΔPAM2 (human)): binds | binding [1]: binds
Substance: cytoplasmic poly(A)-binding protein (PABPC1/PABP), endogenous in HEK293 cells (from UniProt P11940 1-636)
